Paper PMC12003058
Results are given in words; binding and its absence hold for the method and conditions named. In cells and extracts the contact can be indirect. Some entries that bind do so weakly or less than the wild type. Sequences can lack the tags named with a protein. Blank lines part the entries; values can stand above or below the molecule they belong to.

By UniProt entry, the sequences of proteins in these tests, tags left out.
UniProt Q3TKT4: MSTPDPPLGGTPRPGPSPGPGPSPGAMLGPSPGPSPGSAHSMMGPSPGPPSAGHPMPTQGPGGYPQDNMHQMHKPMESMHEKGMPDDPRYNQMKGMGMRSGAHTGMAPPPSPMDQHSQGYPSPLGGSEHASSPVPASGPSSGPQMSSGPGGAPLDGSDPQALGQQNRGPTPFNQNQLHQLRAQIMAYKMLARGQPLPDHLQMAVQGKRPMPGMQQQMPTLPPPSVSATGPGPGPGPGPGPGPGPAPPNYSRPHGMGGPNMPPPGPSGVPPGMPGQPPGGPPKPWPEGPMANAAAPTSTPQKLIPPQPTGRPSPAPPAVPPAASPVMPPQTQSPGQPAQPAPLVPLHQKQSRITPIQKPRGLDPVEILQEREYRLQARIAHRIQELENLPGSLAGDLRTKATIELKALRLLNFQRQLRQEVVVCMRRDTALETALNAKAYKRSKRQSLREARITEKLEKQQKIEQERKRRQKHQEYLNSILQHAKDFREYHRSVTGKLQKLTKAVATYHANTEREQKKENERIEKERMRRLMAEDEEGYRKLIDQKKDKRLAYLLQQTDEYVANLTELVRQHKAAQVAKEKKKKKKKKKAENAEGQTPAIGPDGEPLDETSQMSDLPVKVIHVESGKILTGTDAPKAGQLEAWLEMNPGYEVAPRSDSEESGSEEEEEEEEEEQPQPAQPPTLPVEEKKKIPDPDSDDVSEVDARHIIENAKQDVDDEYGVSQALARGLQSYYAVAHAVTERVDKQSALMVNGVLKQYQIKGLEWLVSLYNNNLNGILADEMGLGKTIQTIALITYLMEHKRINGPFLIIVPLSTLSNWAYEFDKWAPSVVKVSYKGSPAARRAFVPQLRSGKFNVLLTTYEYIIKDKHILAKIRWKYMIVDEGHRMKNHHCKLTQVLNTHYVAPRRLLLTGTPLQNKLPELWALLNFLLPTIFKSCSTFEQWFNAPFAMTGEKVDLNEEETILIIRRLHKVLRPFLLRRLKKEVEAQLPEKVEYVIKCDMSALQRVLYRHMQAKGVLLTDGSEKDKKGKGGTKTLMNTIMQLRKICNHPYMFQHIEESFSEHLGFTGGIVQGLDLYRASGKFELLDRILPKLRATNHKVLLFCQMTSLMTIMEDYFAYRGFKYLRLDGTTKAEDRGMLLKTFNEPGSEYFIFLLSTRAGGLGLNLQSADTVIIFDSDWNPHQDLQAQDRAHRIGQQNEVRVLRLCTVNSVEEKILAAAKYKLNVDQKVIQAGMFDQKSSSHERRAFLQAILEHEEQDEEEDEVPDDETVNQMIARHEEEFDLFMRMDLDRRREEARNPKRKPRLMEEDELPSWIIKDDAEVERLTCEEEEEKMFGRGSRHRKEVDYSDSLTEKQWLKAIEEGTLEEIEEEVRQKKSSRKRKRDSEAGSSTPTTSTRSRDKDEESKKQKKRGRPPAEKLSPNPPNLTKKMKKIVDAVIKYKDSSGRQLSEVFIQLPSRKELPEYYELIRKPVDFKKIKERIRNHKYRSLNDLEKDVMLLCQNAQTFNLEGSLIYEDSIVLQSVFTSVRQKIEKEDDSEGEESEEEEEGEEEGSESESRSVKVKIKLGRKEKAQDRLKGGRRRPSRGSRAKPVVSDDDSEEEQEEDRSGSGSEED

Key:
[1] = molecular target: T1, Letm1 domain containing 1 (Letmd1)-V5, expressed in brown adipocytes (UniProt Q924L1); assay: co-IP; BAT cell lysate in IP lysis buffer (50 mM HEPES pH 7.4, 150 mM NaCl, 1% Triton X-100); Dynabeads protein A with anti-Brg1 or anti-V5; IgG controls; immunoblot
T1 sequence: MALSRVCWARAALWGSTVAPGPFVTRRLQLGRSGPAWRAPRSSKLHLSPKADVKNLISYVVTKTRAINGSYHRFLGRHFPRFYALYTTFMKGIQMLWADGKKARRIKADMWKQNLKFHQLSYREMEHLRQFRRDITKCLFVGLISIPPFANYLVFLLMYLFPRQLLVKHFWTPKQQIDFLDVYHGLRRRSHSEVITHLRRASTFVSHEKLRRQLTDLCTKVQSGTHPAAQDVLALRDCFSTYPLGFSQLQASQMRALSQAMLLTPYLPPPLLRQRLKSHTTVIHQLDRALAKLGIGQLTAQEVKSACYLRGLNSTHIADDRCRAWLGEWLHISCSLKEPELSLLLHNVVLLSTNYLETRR

[2] = molecular target: T2, GST-Letmd1-Flag, full length (UniProt Q924L1); assay: pull-down; 10 ug GST fusion protein (full length or deletion mutant) with glutathione-agarose beads and precleared lysate of HeLa cells expressing Brg1-V5 or Letmd1-V5; 6 hours at 4°C; four washes; blot with anti-V5 or anti-Flag; only the target purified
T2 sequence: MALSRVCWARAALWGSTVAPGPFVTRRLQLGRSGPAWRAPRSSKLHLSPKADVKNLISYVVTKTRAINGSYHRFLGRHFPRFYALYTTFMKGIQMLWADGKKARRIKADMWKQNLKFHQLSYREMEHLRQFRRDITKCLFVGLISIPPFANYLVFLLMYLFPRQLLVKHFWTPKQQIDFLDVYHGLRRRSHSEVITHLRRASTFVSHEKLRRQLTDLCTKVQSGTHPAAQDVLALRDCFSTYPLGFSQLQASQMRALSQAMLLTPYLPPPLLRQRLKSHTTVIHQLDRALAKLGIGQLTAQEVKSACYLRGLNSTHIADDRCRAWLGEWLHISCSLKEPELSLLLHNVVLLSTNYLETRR

[3] = molecular target: Brg1 (Smarca4), chromatin remodeling protein, in brown adipocytes (mouse (endogenous in primary BAT cells)) (UniProt Q3TKT4); assay: co-IP; BAT cell lysate in IP lysis buffer (50 mM HEPES pH 7.4, 150 mM NaCl, 1% Triton X-100); Dynabeads protein A with anti-Brg1 or anti-V5; IgG controls; immunoblot

binding [1]: binds
Molecule: Brg1 (Smarca4), chromatin remodeling protein, in brown adipocytes (from UniProt Q3TKT4 1-1613)

binding [2]: binds
Molecule: Brg1-V5, expressed in HeLa cells (from UniProt Q3TKT4 1-1613)

binding [3]: binds
B1: Letm1 domain containing 1 (Letmd1)-V5, expressed in brown adipocytes (protein, UniProt Q924L1 1-360)
chain: MALSRVCWARAALWGSTVAPGPFVTRRLQLGRSGPAWRAPRSSKLHLSPKADVKNLISYVVTKTRAINGSYHRFLGRHFPRFYALYTTFMKGIQMLWADGKKARRIKADMWKQNLKFHQLSYREMEHLRQFRRDITKCLFVGLISIPPFANYLVFLLMYLFPRQLLVKHFWTPKQQIDFLDVYHGLRRRSHSEVITHLRRASTFVSHEKLRRQLTDLCTKVQSGTHPAAQDVLALRDCFSTYPLGFSQLQASQMRALSQAMLLTPYLPPPLLRQRLKSHTTVIHQLDRALAKLGIGQLTAQEVKSACYLRGLNSTHIADDRCRAWLGEWLHISCSLKEPELSLLLHNVVLLSTNYLETRR
